Data: PubChem BioAssay AID540276 (National Center for Advancing Translational Sciences (NCATS), 2011)
Values joined by “and” are separate entries in the source; they are usually repeats but may differ in a detail not shown here. Identical values can stand only once. The whole screen tested about 300,000 compounds, of which about 5,400 (1.8%) were called active. The inconclusive results got no clear call from the source; some entries with a clear call stand among them for comparison. The call rests on the fitted dose curve; tested in HEK293 cells. A potency beside an inconclusive call is a rough fit, not a confirmed value.

assay: qHTS for inhibitors of binding or entry into cells for Marburg Virus; details: Marburg virus pseudotyped entry inhibition, cell reporter; series mostly up to 37.8 µM
Potency means the concentration at half of the fitted maximal effect.

Structure (SMILES) | Potency
CC(C)=CCC/C(C)=C/CO/N=C1/C[C@@H](O)[C@@H](O)[C@@H]2[C@@H]3C(=O)N(c4cccc(Oc5ccccc5)c4)C(=O)[C@H]3CC[C@@H]12 | inactive
CCOC(=O)c1ccc(Nc2ccc([N+](=O)[O-])cn2)cc1 | inconclusive: 6.51 µM [activator, single point]
CN(C)c1ccnc(-n2cccc2/C=N/OCc2ccc(F)cc2Cl)c1C#N | inconclusive: 17.8 µM [inhibitor, single point]
COc1ccccc1C1Nc2ccccc2NC2=C1C(=O)CC(C)(C)C2 (stereo not drawn) | inconclusive: 3.55 µM [inhibitor, single point]
COc1ccc(N2CCN(Cc3nc4ccsc4c(=O)[nH]3)CC2)cc1 | inactive
Cc1ccc(N2CC(C(=O)N3CCN(Cc4ccc5c(c4)OCO5)CC3)CC2=O)cc1 (stereo not drawn) | inactive
COc1ccc(C)cc1NC(=O)CN1CCN(S(=O)(=O)c2ccc(F)cc2)CC1 | inactive
COc1ccccc1Nc1nn2c(=O)c3ccc(C(=O)N4CCCC(C)C4)cc3nc2s1 (stereo not drawn) | inconclusive: 35.5 µM [inhibitor, single point] and inconclusive: 15.8 µM [inhibitor, single point]
Cc1ccc(S(=O)(=O)NC2c3cccc4cccc(c34)C2Sc2nncn2C)cc1 (stereo not drawn) | inconclusive: 20.6 µM [inhibitor, single point]
CCCCCCCCNC(=S)NCCN1CCCCC1 | active: 14.6 µM
Cc1nc2ccccc2n1Cc1ccccc1Br | inconclusive: 5.62 µM [inhibitor, full curve, poor fit]
NC(=S)NC1CCS(=O)(=O)C1 (stereo not drawn) | inactive
C/C(=C\C(=O)C(F)(F)F)Nc1ccc(C(F)(F)F)cc1 | inconclusive: 1.26 µM [inhibitor, partial curve, poor fit]
COc1ccccc1-n1cnc2cc(NCc3cccs3)ccc21 | inconclusive: 0.1 µM [inhibitor, full curve, poor fit]
CC(CCN1CCCc2nc(C)c(C)cc21)=NO[C@@H](C)c1cc(-c2c(C)cc(C)cc2C)no1 | inconclusive: 0.211 µM [activator, full curve, poor fit]
Cc1cccc(Oc2coc3cc(OC(=O)c4cncc(Br)c4)ccc3c2=O)c1 | inconclusive: 3.55 µM [activator, single point]
CCOC(=O)CCN1C(=O)[C@H]2[C@H]3[C@H](O)[C@H](O)C/C(=N\NC(=O)OCc4ccccc4)[C@H]3CC[C@H]2C1=O | inconclusive: 12.5 µM [activator, partial curve]
O=C(OCc1nc2ccsc2c(=O)[nH]1)c1ccc(Cl)nc1 | inconclusive: 5.01 µM [inhibitor, partial curve, poor fit]
